In doi:10.1101/2022.12.30.522300 (bioRxiv, 2022):
Results are given in words; binding and its absence hold for the method and conditions named. In cells and extracts the contact can be indirect. Some binding calls cover weakened binding; strength is not graded here. For some assays here: Sequences can lack the tags named with a protein. Blank lines part the entries; values can stand above or below the binder they belong to.

Key:
[1] = biological target: T1, endogenous SAP30BP (human (endogenous in HeLa)) (UniProt Q9UHR5); experiment: co-IP
T1 sequence: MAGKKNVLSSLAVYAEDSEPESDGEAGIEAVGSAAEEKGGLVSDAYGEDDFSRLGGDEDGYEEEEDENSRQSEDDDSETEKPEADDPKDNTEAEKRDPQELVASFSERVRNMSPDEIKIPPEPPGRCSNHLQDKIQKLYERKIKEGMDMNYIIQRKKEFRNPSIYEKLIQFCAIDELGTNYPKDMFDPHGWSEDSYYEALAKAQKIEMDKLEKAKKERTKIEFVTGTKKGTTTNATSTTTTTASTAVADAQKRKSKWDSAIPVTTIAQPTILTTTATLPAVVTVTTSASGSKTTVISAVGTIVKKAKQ

Flag-RBM17 (human) = biological target: T2, Flag-RBM17 (human) (UniProt Q96I25); experiment: co-IP
T2 sequence: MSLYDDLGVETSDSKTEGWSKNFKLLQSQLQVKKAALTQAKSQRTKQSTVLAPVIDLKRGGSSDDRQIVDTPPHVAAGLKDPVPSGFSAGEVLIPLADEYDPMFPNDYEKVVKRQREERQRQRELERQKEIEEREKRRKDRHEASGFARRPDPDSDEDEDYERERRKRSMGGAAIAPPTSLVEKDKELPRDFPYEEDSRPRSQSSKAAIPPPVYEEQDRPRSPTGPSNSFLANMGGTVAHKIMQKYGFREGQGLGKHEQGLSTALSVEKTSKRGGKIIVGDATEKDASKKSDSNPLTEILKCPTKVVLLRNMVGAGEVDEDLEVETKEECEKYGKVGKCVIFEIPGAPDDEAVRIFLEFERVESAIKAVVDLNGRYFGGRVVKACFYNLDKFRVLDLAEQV

- binding [1]: binds
B1: endogenous RBM17 (protein, UniProt Q96I25 1-401)
chain: T2 sequence

- binding (Flag-RBM17 (human)): no binding
B2: Myc-SAP30 (protein, UniProt O75446 1-220)
chain: MNGFTPDEMSRGGDAAAAVAAVVAAAAAAASAGNGTGAGTGAEVPGAGAVSAAGPPGAAGPGPGQLCCLREDGERCGRAAGNASFSKRIQKSISQKKVKIELDKSARHLYICDYHKNLIQSVRNRRKRKGSDDDGGDSPVQDIDTPEVDLYQLQVNTLRRYKRHFKLPTRPGLNKAQLVEIVGCHFRSIPVNEKDTLTYFIYSVKNDKNKSDLKVDSGVH
